Experimental data as given in PubChem BioAssay AID1347426 (Functional Genomics Laboratory (NCATS/FGL), 2020).
The whole screen tested about 31,000 sequences, of which about 1,400 (4.5%) were called active.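 The calls were made as follows: active = median seed-adjusted z-score above 1 or below -1; inactive = the rest.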 The list shows a part of the results.

experiment: Novel Modifiers of Survival Motor Neuron (SMN) Protein: Gene Identification via Genome-wide siRNA Screen; conditions: HEK293T SMN2-luciferase reporter, siRNA knockdown, 72 h; actives lie on both sides;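 also: luminescence tracks full-length SMN protein made from the SMN2 reporter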
Procedure, shortened: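 HEK293T cells stably carrying an SMN2 promoter/splicing cassette–luciferase reporter were reverse-transfected with 1 pmol siRNA per well (druggable-genome library, 3 siRNAs per gene) and grown 72 h at 37 °C. Luminescence, normalized to negative-control siRNA and log10-transformed, was scored as MAD.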

Sequence | median seed-adjusted z-score
CAGUCCACAUUUAACGAUUTT against RAP1B | inactive: -0.0262
GGAUGAAGAAGGCCGGAAATT against POLG2 | inactive: 0
GGACAUAAGAAAGCUCGAATT against SLC12A6 | inactive: 0.155
CUAGAGGACUGGUUCGGGATT against CDK2AP1 | inactive: 0.168
GGAGUGCCCACAGUCAGAATT against SMUG1 | active: -1.38
GGAACAAGGUACCACGAAATT against DHX16 | inactive: 0.102
AGAGGAUCGGCUUGAACAATT against FOXC1 | inactive: -0.447
GGGUCUUCGUCAUGCUCUATT against GPR142 | inactive: -0.0636
GAUCUACCCAGAUCAGAAATT against CHI3L2 | inactive: 0.374
GGAUUUCGAUUGCAUCAUUTT against LGI1 | inactive: -0.19
CCAGGAUCGUGAUAACUGUTT against USP6 | inactive: -0.285
CCCGGUUACCCUUAAGUUATT against DDX56 | inactive: 0.904
CCAUAGUCCAAGGCCGUUATT against HARS2 | inactive: 0
GAAUCAGAAUACGUAGGAATT against PCDHA2 | inactive: 0.803
GCGACUGAUUGAGAAGUCATT against TJP3 | inactive: -0.183
CCUUCUCAACAUAGGAUAATT against ZNF257 | inactive: 0.306
GAGUGGAAGUGUACCAACATT against HCFC1 | active: 1.47
GGCCCAAUAUUUAUACCUATT against FAR2 | inactive: 0.0328
GGACAUUACAAAACGAUUUTT against ZFYVE9 | inactive: 0.373
GGUGGAGUCUUGCACUAAATT against UQCRQ | inactive: 0.0241
CCAGCGCCAUUUCAAGGGATT against ATP5G2 | inactive: 0
CAGCUUGACUAAAAUCGUATT against LRRIQ1 | inactive: 0
CCAUGAAUUCUUACUUUUATT against VAC14 | inactive: 0.0825

Sequence | median seed-adjusted z-score
GCAGCACCGUCUUCUCCUATT against GRIN3B | inactive: 0.39
CAACGCAGCUAUAAGCAAATT against SRGAP3 | inactive: -0.0961
CAUCGGAGCUCGACAAGAATT against DOCK6 | inactive: 0.0378
GUGUCGAUGUGGUCUAUGATT against ZADH2 | inactive: -0.47
GUGACGCAGUUUUAAGGAATT against SLC22A9 | inactive: -0.778
CUCAUUUCCUGGUAUGACATT against GAPDH | inactive: 0.479
GAAUGGUCAUCUCCGGUUATT against RAPGEF6 | inactive: -0.186
CUAGAGCUUUUAUGUCCAATT against TRIM61 | inactive: 0.0116
GCCUAGUGCUGACCUAUAUTT against GBP3 | inactive: -0.864
GGUUCUGACAGACAAUGGATT against DPT | inactive: 0.073
CCAUUUGAUUUGUCGUAUATT against FRK | inactive: -0.14
GUCAAUUCCUGGAAUUUGATT against HLA-B | inactive: -0.355
GUAGAUUGGUUAGAGAGUATT against NUP107 | inactive: -0.692
GUCUGUCGCUACUACAAUATT against SLCO2B1 | inactive: 0.289
CCUGAUCCCGGAGACCUUUTT against STK19 | inactive: -0.188
CCAUCCACGAAAAUGCUUUTT against FRAG1 | inactive: -0.554
GACCUUAACUAGUCGUGGATT against EIF4G3 | inactive: -0.0562
CCCGAUGUGCGGAAAGUAATT against OPCML | inactive: -0.282
GGCAAACUGUGGUCAUAUATT against RPS6KC1 | inactive: 0.344
GAGUAUCUAGUAAUCCUUUTT against HRB | inactive: 0.921
GGAGGUUUGUGACUGCACUTT against PAQR5 | inactive: -0.0985
GCAGAACCUUUACUCAAUUTT against ZNF678 | inactive: 0.172
CCAUCUCCAGCGAUGAUGATT against CYB5R3 | inactive: -0.901

Sequence | median seed-adjusted z-score
GGAUGGUGCCGAAACCAGUTT against ERCC2 | inactive: -0.0551
CAUUCUCAGUCAUCAUAGATT against ATP8A2 | inactive: 0
UGGUCUCAAUGACAGUAGATT against SNRPB | active: -3.17
GGAUCCUACCUGAACAGCATT against GPR158 | inactive: 0.198
GGAGGACUAUGAUUUCGGATT against MAK | inactive: 0.22
GGAUAGUUAUCUAAGAUCATT against DOCK11 | inactive: 0.293
CCAUCACGGGAUAUGUUGATT against BTNL8 | inactive: 0.0508
GCUUCGGUGACAACCUGUATT against HIC1 | inactive: 0.523
CGAGAUUUACUGCAAAGGATT against CSRP1 | inactive: -0.312
CGACUGUUCCGACGACAAUTT against HAVCR1 | inactive: -0.306
CCAUCGGACUGACAGUGAATT against COPZ1 | active: -1.02
AUCUAGACUUCUCUUUAUATT against FHL3 | inactive: 0.105
GACUUUACGUGUUAAUUCUTT against HNRNPA0 | inactive: 0.149
CAAUGCAUGUGCGAAGCAATT against KIF5C | inactive: 0.283
AAACUGCUCUCAGUAUAGATT against SPINK2 | inactive: -0.431
GAUCAAGUCUGACAUGGAATT against DNAJC5B | inactive: 0
GAGCAUCUUUGAUCGAGAATT against SPINK5 | inactive: 0.26
GGCUAGGAAAGAGAUUUAATT against PPP3R1 | inactive: 0.18
CACUAAACCCUAUACAUCATT against CD34 | inactive: -0.0898
CACGAUCAGUUACAUCUAUTT against FER | inactive: 0
GCAUGGGACGUGAUUUUCATT against CYP11A1 | inactive: 0.0202
GCACUUCUCCUGAGCUAUUTT against TIGD3 | inactive: 0.486
GCAUGCAUGCGUAAGGAGATT against TRIM72 | inactive: -0.0122

2 records picked at random from those above, as already listed:
Sequence | median seed-adjusted z-score
GCAUGGGACGUGAUUUUCATT against CYP11A1 | inactive: 0.0202
CAUUCUCAGUCAUCAUAGATT against ATP8A2 | inactive: 0
